Data as given in PubChem BioAssay AID493014 (National Center for Advancing Translational Sciences (NCATS), 2011).
This is one part of the list. Further columns of the screen follow, without active or inactive calls. Compounds called inactive in the main read-out are mostly missing here. The note in brackets gives the kind of curve behind each potency; many fits are weak.

Test: qHTS Assay to Find Inhibitors of Chronic Active B-Cell Receptor Signaling
Conditions: ABC-DLBCL IkBa-CBG/CBR reporter, luminescence ratio (green luciferase fused to IkBa over red control in TMD8 lymphoma cells), 4 h
Procedure, shortened: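 TMD8 human ABC-DLBCL cells with doxycycline-inducible IκBα–green luciferase fusion and unfused red luciferase, in 0.5% FBS medium; compounds up to 46 uM, 4 h at 37C. Green/red luminescence ratio, filter-overlap corrected, fitted to concentration-response curves.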

[1] = measured here: CBR red luminescence, cell number
[2] = measured here: IkBa-CBG green luminescence

Compound	AC50 [1]	AC50 [2]
COc1ccc(/C=C/c2cc[n+](C(=O)Cc3ccccc3)cc2)cc1	15.8 µM [falling, single point]	–
COc1ccc(Cl)cc1NC(=O)CN(C)C(=O)c1cc(=O)c2ccccc2o1	0.461 µM [rising, full curve]	–
CCOC(=O)C(=O)Nc1ccc(OCc2ccccc2)cc1	12.6 µM [falling, single point]	–
COc1ccc(CCNC(=O)C2CCCN(S(=O)(=O)c3ccc(F)cc3)C2)cc1 (centres undefined)	5.62 µM [rising, single point]	–
CCOC(=O)c1cc(-c2ccccc2)sc1NC(=O)C(C)Sc1nnnn1C (centres undefined)	14.1 µM [falling, single point]	35.5 µM [rising, partial curve, poor fit]
Cc1cccc(NC(=O)CS(=O)(=O)c2cn(C)c3ccccc23)c1	29.1 µM [falling, single point]	–
Clc1ccc(-c2c(C3=NCCCN3)nnn2-c2ccc(Cl)cc2)cc1	22.4 µM [falling, partial curve, poor fit]	–
Cc1ccc(N2C(=O)CC(SCC(=O)Nc3ccc(S(N)(=O)=O)cc3)C2=O)cc1 (centres undefined)	5.62 µM [rising, single point]	–
CCOc1ccc(-n2c(-c3ccco3)nc3c(cnn3-c3ccc(C)cc3)c2=O)cc1	3.55 µM [rising, single point]	–
O=C(COCc1cc(-c2ccc3c(c2)OCO3)on1)N1CCN(c2ccccc2)CC1	35.5 µM [falling, single point]	–
Cn1cc2ccc([N+](=O)[O-])cc2n1	3.16 µM [falling, full curve, poor fit]	–
CC1CCCC(C)N1c1nnc(NC(=O)Cn2c(=O)oc3ccccc32)s1 (centres undefined)	0.146 µM [rising, full curve, poor fit]	–
Cn1c(NC(=O)c2cccc(Cn3cc(Cl)cn3)c2)nc2ccccc21	0.206 µM [rising, full curve]	–
Cc1cc(CC(=O)O)n(C)c1C(=O)c1ccc(Cl)cc1	2.59 µM [rising, single point]	–
Cc1cc(N)n2ncc(-c3cccc(Br)c3)c2n1	0.447 µM [rising, full curve, poor fit]	–
COc1ccc(C(=O)C2CCCCC2=O)cc1 (centres undefined)	10 µM [falling, single point]	–
CN1C(=O)CC(N2CCN(CCN=CC3=C(O)CC(C)(C)CC3=O)CC2)C1=O (centres undefined)	35.5 µM [rising, single point]	–
COc1cccc(CN2CCNC(=O)C2CC(=O)N(C)CCc2ccccn2)c1OC (centres undefined)	3.16 µM [rising, full curve, poor fit]	–
CCOc1ccc(S(=O)(=O)Nc2cc(OC)ccc2OC)cc1	14.6 µM [rising, partial curve]	11.6 µM [falling, partial curve]
CC(C)c1ccccc1NC(=O)COc1ccc2c(=O)c(Oc3ccc4ccccc4c3)coc2c1	7.31 µM [rising, partial curve, poor fit]	–

2 compounds drawn at random from the list so far:
Compound	AC50 [1]	AC50 [2]
CCOc1ccc(-n2c(-c3ccco3)nc3c(cnn3-c3ccc(C)cc3)c2=O)cc1	3.55 µM [rising, single point]	–
COc1ccc(Cl)cc1NC(=O)CN(C)C(=O)c1cc(=O)c2ccccc2o1	0.461 µM [rising, full curve]	–

(continued)

Compound	AC50 [1]	AC50 [2]
CCn1c(SCC(=O)NCC2CCCO2)nc2c([nH]c3ccccc32)c1=O (centres undefined)	0.891 µM [falling, full curve]	–
Cc1[nH]c2ccccc2c1C(=O)COC(=O)c1c(-c2ccccc2Cl)noc1C	0.103 µM [rising, full curve, poor fit]	25.9 µM [rising, partial curve, poor fit]
Clc1ccc(CNc2nnnn2-c2ccccc2)c(Cl)c1	14.6 µM [falling, partial curve, poor fit]	–
Fc1cc(F)c(NC(=S)N2CCOCC2)c(F)c1	8.91 µM [rising, partial curve, poor fit]	–
Cc1cccc2cc(COC(=O)c3ccccn3)c(=O)[nH]c12	2.31 µM [rising, partial curve, poor fit]	–
C=CCn1c(NC(=O)c2ccco2)nc2ccccc21	35.5 µM [falling, single point]	–
Cc1cc(NC(=O)c2cc3cccc([N+](=O)[O-])c3[nH]2)ccc1F	22.4 µM [falling, single point]	–
C/C(=N\Nc1nc(C(C)(C)C)cs1)c1ccc(O)cc1	0.112 µM [rising, full curve, poor fit]	–
COC(=O)c1c(NC(=O)CC2Nc3cc(C)c(C)cc3NC2=O)sc(C)c1C (centres undefined)	1.16 µM [rising, full curve, poor fit]	–
Cc1cccnc1NC(=O)Nc1cccc(Cl)c1	0.631 µM [rising, full curve, poor fit]	–
Fc1ccc(/C=N/Nc2ncnc3nc[nH]c23)cc1F	2.31 µM [rising, partial curve, poor fit]	23.1 µM [falling, single point]
O=c1[nH]ncc(N/N=C/c2ccccc2)c1Cl	32.6 µM [rising, single point]	–
CCn1c(SCC(=O)NCc2ccco2)nnc1-c1c[nH]c2ccccc12	3.26 µM [falling, single point]	–
COC(=O)c1cc(=O)n(Cc2ccc3c(c2)OCO3)c(=Nc2ccc(F)cc2)s1	6.51 µM [falling, full curve]	–
COCCNC(=S)NNC(=O)c1ccco1	20.6 µM [falling, single point]	–
COc1cccc(C#Cc2c(C=O)n(C)c3ccccc23)c1	1.46 µM [rising, full curve]	–
COCCCNC(=O)CC(NS(=O)(=O)c1ccc(F)cc1)c1ccc(OC)cc1 (centres undefined)	0.103 µM [rising, full curve, poor fit]	–
Cn1c(=O)[nH]c(=O)c2c1nc(N1CCN(Cc3ccccc3)CC1)n2CCSc1ncccn1	29.1 µM [falling, single point]	–
COc1cccc(/C=N/NC(=S)NC2CC3CC2C2C=CCC32)c1O (centres undefined)	–	0.251 µM [rising, full curve, poor fit]
c1cc2ccc3ccc(CN4CCOCC4)c4ccc(c1)c2c34	11.2 µM [rising, partial curve]	–
